Assay [1] has as its target GFP-UBR5 (UniProt O95071). Nature of the assay: pull-down; Streptavidin agarose loaded with biotinylated GFP VHH nanobodies, incubated with 293T lysates in MCLB buffer overnight at 4°C; cells treated with DMSO or Btz; immunoblot. In general terms: Immunoblotting shows a protein as a band on a membrane.
The target in assay [2] is T1, C9orf72-HA (C-terminal HA-tagged C9orf72) (UniProt Q96LT7).
T1 sequence: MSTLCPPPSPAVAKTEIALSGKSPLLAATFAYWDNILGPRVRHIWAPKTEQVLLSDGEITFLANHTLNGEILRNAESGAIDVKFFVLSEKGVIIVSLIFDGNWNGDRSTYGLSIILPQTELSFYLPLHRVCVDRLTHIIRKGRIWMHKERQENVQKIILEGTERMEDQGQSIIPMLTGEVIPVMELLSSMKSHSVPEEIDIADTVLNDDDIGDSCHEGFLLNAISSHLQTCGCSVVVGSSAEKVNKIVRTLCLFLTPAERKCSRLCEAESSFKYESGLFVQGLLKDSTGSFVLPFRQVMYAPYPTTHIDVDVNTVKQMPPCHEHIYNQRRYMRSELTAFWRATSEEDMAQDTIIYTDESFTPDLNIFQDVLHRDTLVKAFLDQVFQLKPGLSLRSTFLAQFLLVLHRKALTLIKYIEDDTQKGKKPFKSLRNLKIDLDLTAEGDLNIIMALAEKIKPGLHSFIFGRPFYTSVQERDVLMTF
Briefly: co-IP; HA-IP (anti-HA beads, overnight, 4°C, MCLB buffer) from C9orf72-HA expressing parental and SMCR8 KO 293T cells treated with DMSO or Btz; immunoblot.

Amino acid sequences for entries named in this document (tags omitted).
UniProt O95071: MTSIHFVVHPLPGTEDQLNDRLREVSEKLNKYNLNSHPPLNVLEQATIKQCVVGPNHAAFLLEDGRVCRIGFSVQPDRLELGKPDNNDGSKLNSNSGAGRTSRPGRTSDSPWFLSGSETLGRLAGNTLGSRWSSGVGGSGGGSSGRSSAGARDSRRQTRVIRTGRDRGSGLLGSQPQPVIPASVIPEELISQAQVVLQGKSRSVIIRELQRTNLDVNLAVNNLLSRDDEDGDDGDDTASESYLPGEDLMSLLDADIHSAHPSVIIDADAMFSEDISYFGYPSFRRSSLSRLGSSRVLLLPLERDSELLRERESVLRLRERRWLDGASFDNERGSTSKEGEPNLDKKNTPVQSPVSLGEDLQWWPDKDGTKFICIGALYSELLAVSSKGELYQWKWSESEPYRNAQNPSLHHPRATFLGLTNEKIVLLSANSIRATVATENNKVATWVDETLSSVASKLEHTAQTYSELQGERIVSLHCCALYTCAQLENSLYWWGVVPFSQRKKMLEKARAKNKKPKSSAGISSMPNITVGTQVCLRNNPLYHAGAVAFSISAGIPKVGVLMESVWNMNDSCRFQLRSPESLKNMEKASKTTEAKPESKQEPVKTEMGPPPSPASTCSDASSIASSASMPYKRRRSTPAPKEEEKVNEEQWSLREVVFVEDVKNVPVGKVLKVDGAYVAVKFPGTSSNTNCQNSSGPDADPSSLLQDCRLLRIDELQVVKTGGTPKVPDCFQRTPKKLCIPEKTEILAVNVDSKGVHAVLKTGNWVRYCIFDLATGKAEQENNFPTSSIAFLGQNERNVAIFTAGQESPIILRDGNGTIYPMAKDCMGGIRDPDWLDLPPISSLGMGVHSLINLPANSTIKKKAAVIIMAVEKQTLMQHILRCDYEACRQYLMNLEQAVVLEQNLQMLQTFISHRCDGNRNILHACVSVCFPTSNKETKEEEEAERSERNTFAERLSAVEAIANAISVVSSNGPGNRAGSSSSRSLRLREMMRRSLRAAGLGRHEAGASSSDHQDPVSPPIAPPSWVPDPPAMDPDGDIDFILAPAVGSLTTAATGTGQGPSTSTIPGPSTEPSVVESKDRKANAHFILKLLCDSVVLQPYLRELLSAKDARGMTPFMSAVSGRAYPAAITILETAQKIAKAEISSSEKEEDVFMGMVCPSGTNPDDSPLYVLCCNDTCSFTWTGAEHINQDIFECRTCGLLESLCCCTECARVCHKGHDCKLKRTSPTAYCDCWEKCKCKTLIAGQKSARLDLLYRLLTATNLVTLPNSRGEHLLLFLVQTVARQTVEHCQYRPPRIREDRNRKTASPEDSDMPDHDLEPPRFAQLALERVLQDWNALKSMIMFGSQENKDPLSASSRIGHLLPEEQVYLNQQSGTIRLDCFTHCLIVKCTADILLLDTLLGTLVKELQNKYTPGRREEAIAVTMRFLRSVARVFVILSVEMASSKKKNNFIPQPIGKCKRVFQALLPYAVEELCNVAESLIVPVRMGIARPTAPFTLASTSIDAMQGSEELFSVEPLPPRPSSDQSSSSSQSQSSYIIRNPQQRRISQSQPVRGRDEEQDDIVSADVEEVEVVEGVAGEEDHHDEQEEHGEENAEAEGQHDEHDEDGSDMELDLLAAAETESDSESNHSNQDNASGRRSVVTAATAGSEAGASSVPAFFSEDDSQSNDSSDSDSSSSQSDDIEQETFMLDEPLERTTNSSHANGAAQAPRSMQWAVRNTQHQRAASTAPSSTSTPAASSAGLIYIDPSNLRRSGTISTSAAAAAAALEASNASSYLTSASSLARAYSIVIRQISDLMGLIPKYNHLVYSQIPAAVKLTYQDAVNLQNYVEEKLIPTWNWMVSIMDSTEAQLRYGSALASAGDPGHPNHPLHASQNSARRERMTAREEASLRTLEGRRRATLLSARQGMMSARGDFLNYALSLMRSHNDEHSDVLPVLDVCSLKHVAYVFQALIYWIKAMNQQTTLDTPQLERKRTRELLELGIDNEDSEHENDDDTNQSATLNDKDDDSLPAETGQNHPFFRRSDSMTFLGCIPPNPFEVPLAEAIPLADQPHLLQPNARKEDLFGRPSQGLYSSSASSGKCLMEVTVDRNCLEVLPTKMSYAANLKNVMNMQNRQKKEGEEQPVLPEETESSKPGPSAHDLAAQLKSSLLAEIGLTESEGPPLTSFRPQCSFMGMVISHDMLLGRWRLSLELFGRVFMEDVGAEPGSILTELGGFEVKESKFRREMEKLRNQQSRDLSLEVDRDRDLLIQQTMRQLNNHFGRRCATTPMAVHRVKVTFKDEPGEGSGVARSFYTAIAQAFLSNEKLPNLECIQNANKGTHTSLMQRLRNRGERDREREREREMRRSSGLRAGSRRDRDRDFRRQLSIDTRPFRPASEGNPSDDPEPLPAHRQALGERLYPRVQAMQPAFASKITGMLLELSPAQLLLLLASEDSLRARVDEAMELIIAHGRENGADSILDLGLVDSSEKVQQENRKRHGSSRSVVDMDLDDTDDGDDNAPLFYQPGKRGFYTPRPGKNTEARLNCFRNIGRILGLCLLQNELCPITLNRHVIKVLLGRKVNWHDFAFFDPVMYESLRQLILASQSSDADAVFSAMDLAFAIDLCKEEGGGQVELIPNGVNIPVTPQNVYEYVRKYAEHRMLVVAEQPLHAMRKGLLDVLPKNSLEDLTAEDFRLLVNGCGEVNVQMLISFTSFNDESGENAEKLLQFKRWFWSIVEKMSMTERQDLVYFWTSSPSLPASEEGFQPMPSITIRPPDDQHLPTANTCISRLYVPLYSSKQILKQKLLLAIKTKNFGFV

No constants are given. Whether binding was seen depends on the method and setting. Binding seen in cells or lysates may run through a third protein. Some binding calls cover weakened binding; strength is not graded here. Tags and fused reporters may be left off the sequences shown.

B1: C9orf72-HA (C-terminal HA-tagged C9orf72) (protein, UniProt Q96LT7 1-481)
chain: MSTLCPPPSPAVAKTEIALSGKSPLLAATFAYWDNILGPRVRHIWAPKTEQVLLSDGEITFLANHTLNGEILRNAESGAIDVKFFVLSEKGVIIVSLIFDGNWNGDRSTYGLSIILPQTELSFYLPLHRVCVDRLTHIIRKGRIWMHKERQENVQKIILEGTERMEDQGQSIIPMLTGEVIPVMELLSSMKSHSVPEEIDIADTVLNDDDIGDSCHEGFLLNAISSHLQTCGCSVVVGSSAEKVNKIVRTLCLFLTPAERKCSRLCEAESSFKYESGLFVQGLLKDSTGSFVLPFRQVMYAPYPTTHIDVDVNTVKQMPPCHEHIYNQRRYMRSELTAFWRATSEEDMAQDTIIYTDESFTPDLNIFQDVLHRDTLVKAFLDQVFQLKPGLSLRSTFLAQFLLVLHRKALTLIKYIEDDTQKGKKPFKSLRNLKIDLDLTAEGDLNIIMALAEKIKPGLHSFIFGRPFYTSVQERDVLMTF
Take B1: the binding entry in assay [1] is given as “binds”.

B2: endogenous C9orf72 (protein, UniProt Q96LT7 1-481)
chain: MSTLCPPPSPAVAKTEIALSGKSPLLAATFAYWDNILGPRVRHIWAPKTEQVLLSDGEITFLANHTLNGEILRNAESGAIDVKFFVLSEKGVIIVSLIFDGNWNGDRSTYGLSIILPQTELSFYLPLHRVCVDRLTHIIRKGRIWMHKERQENVQKIILEGTERMEDQGQSIIPMLTGEVIPVMELLSSMKSHSVPEEIDIADTVLNDDDIGDSCHEGFLLNAISSHLQTCGCSVVVGSSAEKVNKIVRTLCLFLTPAERKCSRLCEAESSFKYESGLFVQGLLKDSTGSFVLPFRQVMYAPYPTTHIDVDVNTVKQMPPCHEHIYNQRRYMRSELTAFWRATSEEDMAQDTIIYTDESFTPDLNIFQDVLHRDTLVKAFLDQVFQLKPGLSLRSTFLAQFLLVLHRKALTLIKYIEDDTQKGKKPFKSLRNLKIDLDLTAEGDLNIIMALAEKIKPGLHSFIFGRPFYTSVQERDVLMTF
As for B2, in assay [1], the binding entry is recorded as “binds”.

B3: UBL4A, endogenous (protein, UniProt P11441 1-157)
chain: MQLTVKALQGRECSLQVPEDELVSTLKQLVSEKLNVPVRQQRLLFKGKALADGKRLSDYSIGPNSKLNLVVKPLEKVLLEEGEAQRLADSPPPQVWQLISKVLARHFSAADASRVLEQLQRDYERSLSRLTLDDIERLASRFLHPEVTETMEKGFSK
As for B3, in assay [2], the binding result is “binds”.

The record behind these values is PMC10398660.
